In publication PMC4686814 (Nature communications, 2015) one finds binding data, which are given here for one molecule.

In assay [1] the target is MsVps4 Phe126Ala, full length, N-terminally His-tagged (Metallosphera sedula) (UniProt A4YHC5). In words: SEC-MALS; Superose 6 in 50 mM Tris pH 8.8, 50 mM NaCl; MsVps4 Phe126Ala injected at 200 µM; both purified.
Assay [2] shares this target. In words: SEC; Superose 6; N-terminally His-tagged full length MsVps4 and mutants at 70 µM, a concentration that induces dodecamer formation; no nucleotide; both purified.

Results are given in words; binding and its absence hold for the method and conditions named. Where a sequence is shown, tags or fusion partners need not be part of it.

B1: MsVps4 Phe126Ala, full length, N-terminally His-tagged (enzyme, UniProt A4YHC5 1-369)
chain: MSAQVMLEEMARKYAIAAVRADKEGRREDAINNYKKAIEVLTQIVTLYPDMVARNAYEQMINEYKKRLETLNQMVPEGGEETEKAEEDIVMKEKPKVTLNEIVGLEDVKEALKEAVVYPSKRPDLAPLGWPRGILLYGPPGCGKTMIAAAVANELDSEFIHVDAASIMSKWLGEAEKNVAKIFKTARELSKKENKPAIIFIDELDALLASYTSEVGGEARVRNQFLKEMDGLADKNEISKVYVIGATNKPWRLDEPFLRRFQKRIYITLPDKAHRLELLKHYSSKVKLDPNVNLEELAELTDGYTASDIRDIVQSAHMRVVKEMFEKNLQEPRAINMDDFREVLKVRKPSVNQDMLKAYAAWHEKFKAL
B1: the binding result in assay [1] is given as “no binding (tested: 200 µM)”; in assay [2], “no binding (tested: 70 µM)”.
